Data taken from PubChem BioAssay AID504749, deposited by NCATS (2011).

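A panel of P. falciparum strains inside erythrocytes is exposed to compounds for three days, then a DNA-binding dye reports the amount of parasite DNA.
Each compound was titrated across a series from about 0.000037 to 29 µM.
The number is the fitted AC50, the concentration giving a half-maximal change in signal; a lower value means higher potency, whether the curve shows a decrease or an increase.
Calls follow the curve class and fit quality: every row here is inconclusive, covering signal-raising curves and weak, poorly fitted, partial or highest-dose-only inhibition curves.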

Values are in nM.
Every entry below has the call inconclusive.
Only part of the assay is shown, chiefly results filed as inconclusive.
Potencies fitted to partial, single-point or poorly fitting curves are rough.

* CC1=C(C)C(=O)C(C(CCCCCC(=O)O)c2ccccc2)=C(C)C1=O (configuration not stated) [SC27B] : Potency 17782 nM (inhibitor, single point)
* CC1=C(C)C(=O)C(C(CCCCCC(=O)O)c2ccccc2)=C(C)C1=O (configuration not stated) [W2] : Potency 13459 nM (inhibitor, single point)
* CC1=C(C)C(=O)C(C(CCCCCC(=O)O)c2ccccc2)=C(C)C1=O (configuration not stated) [DIV14] : Potency 19011 nM (inhibitor, single point)
* CC1=C(C)C(=O)C(C(CCCCCC(=O)O)c2ccccc2)=C(C)C1=O (configuration not stated) [CP203] : Potency 15101 nM (inhibitor, single point)
* CC1=C(C)C(=O)C(C(CCCCCC(=O)O)c2ccccc2)=C(C)C1=O (configuration not stated) [CP194] : Potency 19011 nM (inhibitor, single point)
* CCN(CC)CCNC(C(=O)OCCC(C)C)c1ccccc1 (configuration not stated) [ECU] : Potency 10000 nM (inhibitor, partial curve, poor fit)
* CCN(CC)CCNC(C(=O)OCCC(C)C)c1ccccc1 (configuration not stated) [CP329] : Potency 6746 nM (inhibitor, partial curve, poor fit)
* CCN(CC)CCNC(C(=O)OCCC(C)C)c1ccccc1 (configuration not stated) [CP238] : Potency 12589 nM (inhibitor, partial curve)
* CCN(CC)CCNC(C(=O)OCCC(C)C)c1ccccc1 (configuration not stated) [CP325] : Potency 13459 nM (inhibitor, single point)
* CCCCC(=O)N(Cc1ccc(-c2ccccc2-c2nn[nH]n2)cc1)C(C(=O)O)C(C)C (configuration not stated) [P93_24] : Potency 17782 nM (inhibitor, single point)
* CCCCC(=O)N(Cc1ccc(-c2ccccc2-c2nn[nH]n2)cc1)C(C(=O)O)C(C)C (configuration not stated) [DIV17] : Potency 19011 nM (inhibitor, single point)
* CCCCC(=O)N(Cc1ccc(-c2ccccc2-c2nn[nH]n2)cc1)C(C(=O)O)C(C)C (configuration not stated) [CP191] : Potency 17782 nM (inhibitor, single point)
* CCCCC(=O)N(Cc1ccc(-c2ccccc2-c2nn[nH]n2)cc1)C(C(=O)O)C(C)C (configuration not stated) [TAB165] : Potency 10000 nM (inhibitor, single point)
* CCCCC(=O)N(Cc1ccc(-c2ccccc2-c2nn[nH]n2)cc1)C(C(=O)O)C(C)C (configuration not stated) [CP260] : Potency 14125 nM (inhibitor, single point)
* CCCCC(=O)N(Cc1ccc(-c2ccccc2-c2nn[nH]n2)cc1)C(C(=O)O)C(C)C (configuration not stated) [CP265] : Potency 14125 nM (inhibitor, single point)
* CCCCC(=O)N(Cc1ccc(-c2ccccc2-c2nn[nH]n2)cc1)C(C(=O)O)C(C)C (configuration not stated) [ATS189] : Potency 17782 nM (inhibitor, single point)
* CCCCC(=O)N(Cc1ccc(-c2ccccc2-c2nn[nH]n2)cc1)C(C(=O)O)C(C)C (configuration not stated) [DIV14] : Potency 19011 nM (inhibitor, single point)
* CCCCC(=O)N(Cc1ccc(-c2ccccc2-c2nn[nH]n2)cc1)C(C(=O)O)C(C)C (configuration not stated) [HB3] : Potency 17782 nM (inhibitor, single point)
* CCCCC(=O)N(Cc1ccc(-c2ccccc2-c2nn[nH]n2)cc1)C(C(=O)O)C(C)C (configuration not stated) [N140] : Potency 17782 nM (inhibitor, single point)
* CCCCC(=O)N(Cc1ccc(-c2ccccc2-c2nn[nH]n2)cc1)C(C(=O)O)C(C)C (configuration not stated) [TAB113] : Potency 11220 nM (inhibitor, single point)
* CCCCC(=O)N(Cc1ccc(-c2ccccc2-c2nn[nH]n2)cc1)C(C(=O)O)C(C)C (configuration not stated) [ECU] : Potency 12589 nM (inhibitor, single point)
* CCCCC(=O)N(Cc1ccc(-c2ccccc2-c2nn[nH]n2)cc1)C(C(=O)O)C(C)C (configuration not stated) [TAB109] : Potency 11220 nM (inhibitor, single point)
* CCCCC(=O)N(Cc1ccc(-c2ccccc2-c2nn[nH]n2)cc1)C(C(=O)O)C(C)C (configuration not stated) [PC26] : Potency 19011 nM (inhibitor, single point)
* CCCCC(=O)N(Cc1ccc(-c2ccccc2-c2nn[nH]n2)cc1)C(C(=O)O)C(C)C (configuration not stated) [P94_40] : Potency 17782 nM (inhibitor, single point)
* CC(=O)C1(O)Cc2c(O)c3c(c(O)c2C(OC2CC(N)C(O)C(C)O2)C1)C(=O)c1c(O)cccc1C3=O (configuration not stated) [CP203] : Potency 16944 nM (inhibitor, single point)
* CC(=O)C1(O)Cc2c(O)c3c(c(O)c2C(OC2CC(N)C(O)C(C)O2)C1)C(=O)c1c(O)cccc1C3=O (configuration not stated) [CP305] : Potency 16944 nM (inhibitor, single point)
* CC(=O)C1(O)Cc2c(O)c3c(c(O)c2C(OC2CC(N)C(O)C(C)O2)C1)C(=O)c1c(O)cccc1C3=O (configuration not stated) [CP201] : Potency 15101 nM (inhibitor, single point)
* CC(=O)C1(O)Cc2c(O)c3c(c(O)c2C(OC2CC(N)C(O)C(C)O2)C1)C(=O)c1c(O)cccc1C3=O (configuration not stated) [DIV30] : Potency 11995 nM (inhibitor, single point)
* CC(=O)C1(O)Cc2c(O)c3c(c(O)c2C(OC2CC(N)C(O)C(C)O2)C1)C(=O)c1c(O)cccc1C3=O (configuration not stated) [CP315] : Potency 15101 nM (inhibitor, single point)
* CC(=O)C1(O)Cc2c(O)c3c(c(O)c2C(OC2CC(N)C(O)C(C)O2)C1)C(=O)c1c(O)cccc1C3=O (configuration not stated) [CP268] : Potency 19011 nM (inhibitor, single point)
* CC(=O)C1(O)Cc2c(O)c3c(c(O)c2C(OC2CC(N)C(O)C(C)O2)C1)C(=O)c1c(O)cccc1C3=O (configuration not stated) [CP215] : Potency 16944 nM (inhibitor, single point)
* CC(=O)C1(O)Cc2c(O)c3c(c(O)c2C(OC2CC(N)C(O)C(C)O2)C1)C(=O)c1c(O)cccc1C3=O (configuration not stated) [CP325] : Potency 16944 nM (inhibitor, single point)

2 of the entries, repeated:

{"structure": "CC1=C(C)C(=O)C(C(CCCCCC(=O)O)c2ccccc2)=C(C)C1=O", "stereo": "configuration not stated", "condition": "W2", "Potency (nM)": "13459", "curve": "inhibitor, single point"}
{"structure": "CC(=O)C1(O)Cc2c(O)c3c(c(O)c2C(OC2CC(N)C(O)C(C)O2)C1)C(=O)c1c(O)cccc1C3=O", "stereo": "configuration not stated", "condition": "DIV30", "Potency (nM)": "11995", "curve": "inhibitor, single point"}